Data published in patent publication US20220323379A1, “P62 LIGAND COMPOUND AND ER-PHAGY-PROMOTING USE THEREOF” (PROTECH, INC., priority 2019, published 2022).
At least one structure is not confirmed: it was looked up by name or label, or the drawing left a doubt.

System: HeLa cells
Assay: ER expansion visualization by KDEL immunostaining
Type: cell-based, human
Conditions: tannic acid 30 μM 24 h with YTK1105 2.5 μM 5 h or rapamycin 2 μM 18 h, FIGS. 5H, 5I
Description: FIG. 5H illustrates the immunostaining results of KDEL signals in HeLa cells treated with or without tannic acid (30 μM, 24 h) and with YTK1105 (2.5 μM, 5 h) or rapamycin (2 μM, 18 h) (scale bar, 10 μm),
To observe cellular localization of proteins, cells were cultured on cover slips coated with poly-L-lysine (Sigma). The cells were fixed with 4% paraformaldehyde in PBS (pH 7.4) for 15 min at room temperature and washed three times with PBS for 5 min. The cells were permeabilized with 0.5% Triton X-100 in PBS solution for 15 min and washed three times with PBS for 5 min. The cells were blocked with 2% BSA in PBS solution for 1 h at room temperature. After blocking, the cells were incubated overnight at 4° C. with a primary antibody diluted in 2% BSA/PBS solution. […] Confocal images were taken by a laser scanning confocal microscope 510 Meta (Zeiss) and analyzed by Zeiss LSM Image Browser (ver. 4.2.0.121).
Using confocal microscopy of cells analyzed by immunocytochemistry, ER expansion was visualized by considered when KDEL- or calnexin-labelled ER occupied more than 80% of cell area. Furthermore, the ER area was calculated by ImageJ (NIH, Bethesda, v1.52) and the background threshold was manually defined and set for all images. The ER area was calculated and marked from the total cell area as a fraction after borders of each cell were set.

## CO[C@H]1C[C@@H]2CC[C@@H](C)[C@@](O)(O2)C(=O)C(=O)N2CCCC[C@H]2C(=O)O[C@H]([C@H](C)C[C@@H]2CC[C@@H](O)[C@H](OC)C2)CC(=O)[C@H](C)/C=C(\C)[C@@H](O)[C@@H](OC)C(=O)[C@H](C)C[C@H](C)/C=C/C=C/C=C/1C [rapamycin]
  ER morphology (swelling), KDEL signals: such rescue effects were not observed
